For test [1], the target named is PAX7 (wild type, construct of Supplementary Fig. 1) (mouse) (UniProt P47239). Nature of the test: co-IP; Supplementary Fig. 1 (not shown), listed among the co-immunoprecipitations and immunoblots; WT against K105/K193 mutant PAX7 with CARM1 or ASH2L; set-up not told. (In general: In western blotting, separated proteins are transferred to a membrane and probed.)
The target of a further test is FLAG-PAX7 (mouse) (UniProt P47239). Put plainly: co-IP; C2C12 cells transfected with tagged plasmids, collected 48 h later; Triton lysis buffer (50 mM Tris pH 7.5, 150 mM NaCl, 2 mM MgCl2, 0.5 mM EDTA, 0.5% Triton X-100); primary antibody overnight at 4 °C, Protein A/G magnetic beads 2 h; IP done in both directions; western blot.

By UniProt entry, the sequences of proteins in these tests, tags left out.
UniProt P47239: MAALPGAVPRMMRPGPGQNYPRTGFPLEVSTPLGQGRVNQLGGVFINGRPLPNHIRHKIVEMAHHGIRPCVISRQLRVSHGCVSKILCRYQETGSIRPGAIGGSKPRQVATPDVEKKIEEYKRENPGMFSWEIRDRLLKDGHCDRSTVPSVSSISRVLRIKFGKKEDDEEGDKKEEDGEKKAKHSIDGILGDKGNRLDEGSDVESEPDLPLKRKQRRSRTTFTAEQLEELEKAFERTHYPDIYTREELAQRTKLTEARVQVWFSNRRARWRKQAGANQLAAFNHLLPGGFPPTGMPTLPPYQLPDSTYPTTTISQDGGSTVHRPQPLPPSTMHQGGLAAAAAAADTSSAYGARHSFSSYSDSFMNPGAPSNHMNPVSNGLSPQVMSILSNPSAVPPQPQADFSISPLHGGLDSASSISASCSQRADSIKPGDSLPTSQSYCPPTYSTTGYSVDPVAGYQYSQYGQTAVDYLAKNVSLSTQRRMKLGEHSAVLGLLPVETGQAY
UniProt Q91X20: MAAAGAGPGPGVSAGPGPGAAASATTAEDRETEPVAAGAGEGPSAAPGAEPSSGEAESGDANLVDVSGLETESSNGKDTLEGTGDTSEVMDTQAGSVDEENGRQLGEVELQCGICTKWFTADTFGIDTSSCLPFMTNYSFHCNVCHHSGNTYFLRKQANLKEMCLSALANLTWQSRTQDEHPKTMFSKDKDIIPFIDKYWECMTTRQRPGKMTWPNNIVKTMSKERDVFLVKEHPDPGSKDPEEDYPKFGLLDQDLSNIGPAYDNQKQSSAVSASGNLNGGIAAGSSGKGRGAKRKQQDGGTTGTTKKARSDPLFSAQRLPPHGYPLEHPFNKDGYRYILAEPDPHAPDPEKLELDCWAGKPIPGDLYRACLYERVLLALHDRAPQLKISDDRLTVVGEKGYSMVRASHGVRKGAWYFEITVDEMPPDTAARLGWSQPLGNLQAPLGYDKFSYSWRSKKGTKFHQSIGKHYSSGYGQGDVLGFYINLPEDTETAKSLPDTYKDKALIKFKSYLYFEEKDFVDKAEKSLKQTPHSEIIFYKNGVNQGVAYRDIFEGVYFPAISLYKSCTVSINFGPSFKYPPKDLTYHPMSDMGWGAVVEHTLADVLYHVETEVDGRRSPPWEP

These are yes or no findings as the source states them, for the method shown. Binding seen in cells or lysates may run through a third protein. Some entries that bind do so weakly or less than the wild type. For some assays here: Where a sequence is shown, tags or fusion partners need not be part of it.

In the case of ASH2L (from UniProt Q91X20 1-623), the binding entry in test [1] was “binds”.

B1: HA-MYST1 (enzyme, UniProt Q9D1P2 1-458)
chain: MAAQGATAAVAATTSGTVGEGEPGPGENAAVEGPARSPGRVSPPTPARGEPEVTVEIGETYLCRRPDSTWHSAEVIQSRVNDQEGREEFYVHYVGFNRRLDEWVDKNRLALTKTVKDAVQKNSEKYLSELAEQPERKITRNQKRKHDEINHVQKTYAEMDPTTAALEKEHEAITKVKYVDKIHIGNYEIDAWYFSPFPEDYGKQPKLWLCEYCLKYMKFEKSYRFHLGQCQWRQPPGKEIYRKSNISVYEVDGKDHKIYCQNLCLLAKLFLDHKTLYFDVEPFVFYILTEVDRQGAHIVGYFSKEKESPDGNNVACILTLPPYQRRGYGKFLIAFSYELSKLESTVGSPEKPLSDLGKLSYRSYWSWVLLEILRDFRGTLSIKDLSQMTSITQNDIISTLQSLNMVKYWKGQHVICVTPKLVEEHLKSAQYKKPPITVDSVCLKWAPPKHKQVKLSKK
Turning to B1, the binding entry with FLAG-PAX7 (mouse) was “binds”.

For the origin of these results see article PMC8167170.
